Experimental findings from patent US20050064014A1, “Use of cystathionine” (priority 2001, published 2005) are described below.

This series in a line: Odor after heat treatment of supplemented SONDALIS (physicochemical and organoleptic behavior). The note with it: for Additional odor: added to SONDALIS, 41 mM, 121° C. for 15 minutes in an autoclave. As to the method: Cystathionine is found to be a very stable amino acid. It was tested while added to SONDALIS (trademark), and compared to cysteine in equivalent molar concentration (41 mM, i.e. 5 g of cysteine/L). SONDALIS is an enteral nutrition product comprising 35% of the energy in the form of lipids, 50% in the form of carbohydrates, in particular of maltodextrins, and 15% in the form of proteins, and also vitamins, including vitamins A, B6, B12, C, D, E and K, and mineral salts such as phosphorus and magnesium, inter alia. 1.0 mL of supplemented SONDALIS was brought to 121° C. for 15 minutes in an autoclave. This represents a strong heat treatment, the procedure having lasted more than two hours from the beginning of the handling to the temperature reduction phase. These harsh conditions are confirmed by a thick consistency and a brown color obtained on the product.
The comparative results appear in the table below.
The absence of odor in the cystathionine-supplemented product is a first important element which proves its compatibility with an oral formula, in particular, insofar as the oxidation and decomposition of compounds containing sulfur produce derivatives with a strong unpleasant odor.

Consider `N[C@@H](CCSC[C@H](N)C(=O)O)C(=O)O` [L-cystathionine, cystathionine], for which the Additional odor result is reported as “No additional odor”. Under “added to an enteral solution”, the “release of H2S” value is given as “no release of H2S”.

Regarding `N[C@@H](CS)C(=O)O` [L-cysteine, cysteine], the Additional odor result is listed as “Sulfur-based additional odor”.
